The list shows a part of the results.

The results in this text go back to publication PMC5996148.

Among the test systems are Stathmin (human); Suprabasin (human); Syndecan-1 (human); Synembryn-A (human); Syntaxin-1B (human); TAGAP (human); TBC1D21 (human); TBC1D7 (human); TBC1D9B (human); TBCD (human).
What all share (assay): protein microarray (ProtoArray v5.0), streptavidin-Alexa Fluor 647
Common to all, as to settings: 3'-biotin; 20 mM Tris (pH 7.5), 5 mM MgCl2, 100 mM KCl, 0.1% Tween-20, A/T-rich and random oligonucleotide blockers; temperature not stated; high values mean tight binding

In experiment [1] the test system is Sperm protein associated with the nucleus on the X chromosome N4 (human).
In experiment [2] the test system is Spermatogenesis-associated protein 7 (human).
In experiment [3] the test system is Spermine synthase (human).
The subject of experiment [4] is StAR-related lipid transfer protein 4 (human).
Experiment [5] concerns Sulfotransferase family cytosolic 1B member 1 (human).
For experiment [6], the system named is Synaptonemal complex protein 2-like (human).
In experiment [7] the test system is T-complex protein 11-like protein 2 (human).
Experiment [8] relates to TAF5-like RNA polymerase II p300/CBP-associated factor-associated factor 65 kDa subunit 5L (human).
For experiment [9], the system named is TAK1-like protein (human).
Experiment [10] concerns TBC1 domain family member 13 (human).

As to “GGGGACAGGGGTATGGGGAGGGG [G4-3 biotinylated (CtG)]”, the binding signal in experiment [1] is 5.79 z-score; in experiment [2], -0.347 z-score; in experiment [3] it was -0.327 z-score; in [4], -0.319 z-score; with Stathmin (human), -0.34 z-score; in experiment [5], -0.324 z-score. Besides, the binding signal with Suprabasin (human) was -0.339 z-score; in [6], -0.309 z-score; in the experiment on Syndecan-1 (human), -0.306 z-score; with Synembryn-A (human) it was -0.33 z-score; in the experiment on Syntaxin-1B (human), -0.318 z-score; in experiment [7], -0.336 z-score. Moreover, the binding signal in experiment [8] was -0.318 z-score; in the experiment on TAGAP (human) it was -0.31 z-score; in experiment [9] it was -0.327 z-score; in experiment [10] it was -0.343 z-score; with TBC1D21 (human) it was -0.331 z-score; in the experiment with TBC1D7 (human), -0.333 z-score. Further, the binding signal in the experiment with TBC1D9B (human) was -0.334 z-score; with TBCD (human), -0.327 z-score.
